Source: the supplement of paper PMC7666118
Some of the results follow.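 Rule for the calls: active = dose-dependent thermal stabilisation significant by F-test of dose-response against flat model at 10% FDR; inactive = not significant.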

The chains behind the UniProt entries cited, without tags or fusion partners. Where a name states a change or a piece, a line headed by the entry shows the natural chain unless it says otherwise.
UniProt Q9Y2S6, whole entry: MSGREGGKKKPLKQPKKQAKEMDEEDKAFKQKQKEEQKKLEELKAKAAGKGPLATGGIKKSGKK
UniProt Q53FA7: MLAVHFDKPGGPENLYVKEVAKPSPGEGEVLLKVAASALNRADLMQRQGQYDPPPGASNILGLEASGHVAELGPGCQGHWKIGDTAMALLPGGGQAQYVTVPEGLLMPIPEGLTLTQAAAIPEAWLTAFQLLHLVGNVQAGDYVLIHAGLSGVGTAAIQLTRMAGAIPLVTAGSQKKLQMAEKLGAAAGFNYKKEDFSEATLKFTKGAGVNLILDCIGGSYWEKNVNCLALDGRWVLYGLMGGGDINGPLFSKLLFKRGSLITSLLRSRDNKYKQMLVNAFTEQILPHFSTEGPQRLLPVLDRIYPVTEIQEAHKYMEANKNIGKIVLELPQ
UniProt Q969E8: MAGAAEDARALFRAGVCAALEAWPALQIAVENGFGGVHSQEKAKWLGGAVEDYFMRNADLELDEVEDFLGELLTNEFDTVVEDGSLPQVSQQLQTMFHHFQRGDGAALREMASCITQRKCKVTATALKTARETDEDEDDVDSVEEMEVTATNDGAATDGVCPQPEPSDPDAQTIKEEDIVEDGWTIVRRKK
UniProt Q6DKK2: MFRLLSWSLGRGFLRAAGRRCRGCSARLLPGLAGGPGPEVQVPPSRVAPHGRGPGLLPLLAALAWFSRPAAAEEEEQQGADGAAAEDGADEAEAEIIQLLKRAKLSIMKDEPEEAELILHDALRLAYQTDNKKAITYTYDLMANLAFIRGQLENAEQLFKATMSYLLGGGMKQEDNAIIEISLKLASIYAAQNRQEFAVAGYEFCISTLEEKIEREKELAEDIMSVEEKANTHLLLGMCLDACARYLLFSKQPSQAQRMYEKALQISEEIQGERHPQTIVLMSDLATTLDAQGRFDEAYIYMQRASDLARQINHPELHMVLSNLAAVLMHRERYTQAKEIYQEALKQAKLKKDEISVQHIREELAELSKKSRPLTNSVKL
UniProt P04183: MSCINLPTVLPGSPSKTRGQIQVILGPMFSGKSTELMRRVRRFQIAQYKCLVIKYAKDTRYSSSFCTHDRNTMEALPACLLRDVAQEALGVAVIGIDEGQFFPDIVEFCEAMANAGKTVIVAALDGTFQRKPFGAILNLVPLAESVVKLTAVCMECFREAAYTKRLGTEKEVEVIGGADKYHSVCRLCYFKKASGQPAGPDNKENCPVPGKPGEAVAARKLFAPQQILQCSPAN
UniProt Q15714: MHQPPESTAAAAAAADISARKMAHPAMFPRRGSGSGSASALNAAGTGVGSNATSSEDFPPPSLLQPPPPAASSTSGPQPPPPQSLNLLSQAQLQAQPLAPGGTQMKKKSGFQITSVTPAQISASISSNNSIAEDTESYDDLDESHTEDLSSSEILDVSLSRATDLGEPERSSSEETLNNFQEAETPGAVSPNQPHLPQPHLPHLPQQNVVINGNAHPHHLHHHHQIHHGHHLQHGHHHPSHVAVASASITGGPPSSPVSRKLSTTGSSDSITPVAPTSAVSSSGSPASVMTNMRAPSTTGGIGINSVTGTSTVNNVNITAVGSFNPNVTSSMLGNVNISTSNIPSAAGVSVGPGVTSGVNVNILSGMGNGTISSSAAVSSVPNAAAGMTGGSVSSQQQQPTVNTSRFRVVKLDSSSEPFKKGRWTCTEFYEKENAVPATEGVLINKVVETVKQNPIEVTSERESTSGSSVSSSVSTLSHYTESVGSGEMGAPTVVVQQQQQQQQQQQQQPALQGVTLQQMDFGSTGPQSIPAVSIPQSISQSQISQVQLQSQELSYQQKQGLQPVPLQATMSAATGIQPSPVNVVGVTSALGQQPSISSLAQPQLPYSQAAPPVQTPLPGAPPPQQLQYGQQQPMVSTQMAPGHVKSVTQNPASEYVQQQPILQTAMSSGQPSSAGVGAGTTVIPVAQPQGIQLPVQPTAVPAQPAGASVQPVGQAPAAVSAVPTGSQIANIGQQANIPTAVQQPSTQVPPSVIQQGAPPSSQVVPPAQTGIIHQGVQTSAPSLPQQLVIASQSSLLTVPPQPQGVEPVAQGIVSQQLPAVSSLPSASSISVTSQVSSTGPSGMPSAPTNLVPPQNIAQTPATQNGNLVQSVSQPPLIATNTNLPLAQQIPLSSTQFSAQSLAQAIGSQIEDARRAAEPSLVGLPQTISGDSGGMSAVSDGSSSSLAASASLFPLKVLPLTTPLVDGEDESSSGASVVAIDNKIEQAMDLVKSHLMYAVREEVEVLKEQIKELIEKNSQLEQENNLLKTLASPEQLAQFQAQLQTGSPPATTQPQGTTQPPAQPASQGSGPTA
UniProt Q9Y3Q8: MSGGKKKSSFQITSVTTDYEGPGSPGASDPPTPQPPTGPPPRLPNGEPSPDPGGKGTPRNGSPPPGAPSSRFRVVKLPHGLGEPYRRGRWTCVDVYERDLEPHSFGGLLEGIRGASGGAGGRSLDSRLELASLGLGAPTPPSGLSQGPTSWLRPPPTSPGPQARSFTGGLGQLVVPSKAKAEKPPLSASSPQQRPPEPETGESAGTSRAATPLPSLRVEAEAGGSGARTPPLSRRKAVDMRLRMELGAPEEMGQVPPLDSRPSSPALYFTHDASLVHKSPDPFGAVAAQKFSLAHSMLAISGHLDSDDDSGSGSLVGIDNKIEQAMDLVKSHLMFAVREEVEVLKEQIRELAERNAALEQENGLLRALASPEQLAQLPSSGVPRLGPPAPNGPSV
UniProt Q8N1K5: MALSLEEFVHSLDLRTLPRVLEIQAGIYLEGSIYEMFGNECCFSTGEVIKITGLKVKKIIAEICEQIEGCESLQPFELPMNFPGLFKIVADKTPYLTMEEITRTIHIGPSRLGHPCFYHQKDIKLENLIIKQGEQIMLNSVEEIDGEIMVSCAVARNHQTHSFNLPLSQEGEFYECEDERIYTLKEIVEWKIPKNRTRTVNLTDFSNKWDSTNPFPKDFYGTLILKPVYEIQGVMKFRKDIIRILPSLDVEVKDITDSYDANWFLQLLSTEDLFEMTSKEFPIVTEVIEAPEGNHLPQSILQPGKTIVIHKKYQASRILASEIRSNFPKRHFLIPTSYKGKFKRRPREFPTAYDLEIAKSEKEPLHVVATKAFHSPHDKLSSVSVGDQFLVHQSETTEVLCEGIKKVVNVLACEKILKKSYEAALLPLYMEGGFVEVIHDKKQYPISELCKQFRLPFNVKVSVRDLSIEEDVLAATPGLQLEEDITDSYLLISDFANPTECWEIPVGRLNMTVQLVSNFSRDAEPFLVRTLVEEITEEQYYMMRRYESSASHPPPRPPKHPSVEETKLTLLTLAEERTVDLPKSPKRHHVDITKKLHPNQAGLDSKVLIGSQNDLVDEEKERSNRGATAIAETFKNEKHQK
UniProt Q9Y4G6: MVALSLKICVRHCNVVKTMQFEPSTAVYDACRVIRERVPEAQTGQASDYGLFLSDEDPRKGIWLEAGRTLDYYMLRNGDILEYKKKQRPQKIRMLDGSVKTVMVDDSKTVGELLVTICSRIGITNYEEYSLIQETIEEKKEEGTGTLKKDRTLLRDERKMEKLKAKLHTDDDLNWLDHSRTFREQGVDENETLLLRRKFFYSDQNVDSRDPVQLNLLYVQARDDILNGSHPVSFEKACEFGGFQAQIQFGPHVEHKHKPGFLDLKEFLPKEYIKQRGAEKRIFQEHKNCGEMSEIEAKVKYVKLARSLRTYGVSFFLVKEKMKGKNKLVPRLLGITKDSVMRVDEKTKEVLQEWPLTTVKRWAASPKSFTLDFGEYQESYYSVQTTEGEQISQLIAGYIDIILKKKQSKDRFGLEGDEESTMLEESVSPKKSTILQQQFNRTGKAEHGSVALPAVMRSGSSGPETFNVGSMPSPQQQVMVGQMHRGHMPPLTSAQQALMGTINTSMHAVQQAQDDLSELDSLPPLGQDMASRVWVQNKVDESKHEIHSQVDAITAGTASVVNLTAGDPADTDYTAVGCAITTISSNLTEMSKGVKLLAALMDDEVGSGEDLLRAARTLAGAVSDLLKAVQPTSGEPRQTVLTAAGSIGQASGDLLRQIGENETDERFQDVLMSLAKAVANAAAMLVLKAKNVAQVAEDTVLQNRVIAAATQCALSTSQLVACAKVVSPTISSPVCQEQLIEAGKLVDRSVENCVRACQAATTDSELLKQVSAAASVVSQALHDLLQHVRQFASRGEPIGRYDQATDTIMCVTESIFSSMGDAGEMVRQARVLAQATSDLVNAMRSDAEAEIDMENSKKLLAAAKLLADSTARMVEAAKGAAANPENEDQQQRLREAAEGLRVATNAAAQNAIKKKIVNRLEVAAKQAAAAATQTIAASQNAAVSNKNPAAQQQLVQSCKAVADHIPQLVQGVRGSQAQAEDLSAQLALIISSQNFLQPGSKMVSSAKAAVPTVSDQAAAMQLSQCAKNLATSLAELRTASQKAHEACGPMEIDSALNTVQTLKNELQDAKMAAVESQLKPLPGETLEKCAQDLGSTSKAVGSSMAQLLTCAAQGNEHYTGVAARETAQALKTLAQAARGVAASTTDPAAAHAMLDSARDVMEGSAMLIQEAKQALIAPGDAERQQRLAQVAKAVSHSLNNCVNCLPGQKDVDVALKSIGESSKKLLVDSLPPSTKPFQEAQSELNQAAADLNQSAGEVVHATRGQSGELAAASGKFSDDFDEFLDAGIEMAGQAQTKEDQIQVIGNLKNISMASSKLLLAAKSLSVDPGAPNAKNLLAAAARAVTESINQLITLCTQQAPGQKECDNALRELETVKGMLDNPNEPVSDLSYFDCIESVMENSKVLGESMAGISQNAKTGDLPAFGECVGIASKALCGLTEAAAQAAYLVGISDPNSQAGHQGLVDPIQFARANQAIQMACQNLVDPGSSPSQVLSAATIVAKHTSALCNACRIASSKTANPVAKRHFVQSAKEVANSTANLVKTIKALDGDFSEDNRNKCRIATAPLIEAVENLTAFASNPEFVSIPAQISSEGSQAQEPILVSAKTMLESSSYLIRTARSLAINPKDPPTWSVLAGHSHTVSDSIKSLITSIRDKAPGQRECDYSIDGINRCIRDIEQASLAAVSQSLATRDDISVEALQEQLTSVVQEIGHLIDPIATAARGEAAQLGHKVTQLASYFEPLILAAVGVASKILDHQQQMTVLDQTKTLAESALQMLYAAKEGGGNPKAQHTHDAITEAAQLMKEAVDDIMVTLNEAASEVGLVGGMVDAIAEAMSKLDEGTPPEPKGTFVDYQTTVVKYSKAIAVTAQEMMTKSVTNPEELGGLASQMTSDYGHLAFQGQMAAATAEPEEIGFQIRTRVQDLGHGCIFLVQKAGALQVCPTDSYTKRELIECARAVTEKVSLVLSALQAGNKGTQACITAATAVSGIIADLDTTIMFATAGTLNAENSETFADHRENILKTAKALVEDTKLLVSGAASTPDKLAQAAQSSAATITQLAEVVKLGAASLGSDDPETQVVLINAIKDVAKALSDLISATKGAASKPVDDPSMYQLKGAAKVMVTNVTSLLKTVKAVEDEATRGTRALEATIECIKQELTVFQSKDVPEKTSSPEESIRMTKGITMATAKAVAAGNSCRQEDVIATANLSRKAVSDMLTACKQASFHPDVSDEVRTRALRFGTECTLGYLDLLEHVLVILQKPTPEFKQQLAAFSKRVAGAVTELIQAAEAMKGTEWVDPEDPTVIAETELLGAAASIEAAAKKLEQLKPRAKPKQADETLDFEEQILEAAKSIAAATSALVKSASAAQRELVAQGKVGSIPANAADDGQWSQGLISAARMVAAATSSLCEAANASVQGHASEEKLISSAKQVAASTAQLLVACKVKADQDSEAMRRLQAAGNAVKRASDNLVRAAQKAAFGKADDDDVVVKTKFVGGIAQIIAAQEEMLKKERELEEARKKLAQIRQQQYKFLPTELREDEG
UniProt Q3MII6: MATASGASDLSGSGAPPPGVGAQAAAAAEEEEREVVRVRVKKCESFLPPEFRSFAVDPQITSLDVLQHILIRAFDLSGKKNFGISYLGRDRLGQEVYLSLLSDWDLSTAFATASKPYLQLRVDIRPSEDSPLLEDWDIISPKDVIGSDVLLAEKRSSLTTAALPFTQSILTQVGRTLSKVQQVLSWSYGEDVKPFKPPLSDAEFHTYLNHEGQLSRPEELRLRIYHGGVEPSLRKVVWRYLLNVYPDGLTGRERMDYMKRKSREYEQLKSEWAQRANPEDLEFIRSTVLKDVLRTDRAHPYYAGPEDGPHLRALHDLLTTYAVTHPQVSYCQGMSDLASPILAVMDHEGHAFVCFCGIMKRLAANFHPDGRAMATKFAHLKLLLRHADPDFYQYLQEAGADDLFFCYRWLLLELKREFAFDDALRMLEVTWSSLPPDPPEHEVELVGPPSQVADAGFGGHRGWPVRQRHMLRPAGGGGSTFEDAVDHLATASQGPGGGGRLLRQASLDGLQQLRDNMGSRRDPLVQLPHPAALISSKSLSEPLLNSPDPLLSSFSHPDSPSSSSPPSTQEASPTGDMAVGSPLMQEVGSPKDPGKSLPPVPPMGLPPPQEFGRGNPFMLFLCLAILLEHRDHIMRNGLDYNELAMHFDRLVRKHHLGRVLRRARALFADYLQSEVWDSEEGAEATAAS

Each target was assayed with Nc1nc2c(ncn2[C@@H]2O[C@H](COP(=O)(O)OP(=O)(O)OP(=O)(O)O)[C@@H](O)[C@H]2O)c(=O)[nH]1 (assay: dose-dependent thermal stabilisation call (2D-TPP, DLPTP, 10% FDR) (binary (1 = stabilised)); higher = stabilised by the compound). Settings: system: Jurkat gel-filtered lysate; concentration range 1-500 µM.

dose-dependent thermal stabilisation call, inactive:
TMEM263 (UniProt Q8WUH6) 0
TPP2 (UniProt P29144) 0
TBC1D14 (UniProt Q9P2M4) 0
TIPRL (UniProt O75663) 0
TOP2A (UniProt P11388) 0
TMA7 (UniProt Q9Y2S6) 0
TAX1BP1 (UniProt Q86VP1) 0
UBAP1 (UniProt Q9NZ09) 0
TOX4 (UniProt O94842) 0
TSTA3 (UniProt Q13630) 0
TP53I3 (UniProt Q53FA7) 0
TXNDC12 (UniProt O95881) 0
TJP2 (UniProt Q9UDY2) 0
TUBGCP6 (UniProt Q96RT7) 0
TOP3A (UniProt Q13472) 0
TSR2 (UniProt Q969E8) 0
TUSC2 (UniProt O75896) 0
THOC2 (UniProt Q8NI27) 0
TXNRD2 (UniProt Q9NNW7) 0
TTC19 (UniProt Q6DKK2) 0
TK1 (UniProt P04183) 0
TSC22D1 (UniProt Q15714) 0
TSC22D4 (UniProt Q9Y3Q8) 0
THEMIS (UniProt Q8N1K5) 0
TWISTNB (UniProt Q3B726) 0
TPI1 (UniProt P60174) 0
TLN2 (UniProt Q9Y4G6) 0
TRIOBP (UniProt Q9H2D6) 0
TBC1D25 (UniProt Q3MII6) 0
TCF20 (UniProt Q9UGU0) 0
TFG (UniProt Q92734) 0

Retrieved one by one from the entries so far:
dose-dependent thermal stabilisation call, inactive:
TWISTNB (UniProt Q3B726) 0
TXNDC12 (UniProt O95881) 0

Following part.

dose-dependent thermal stabilisation call, active:
THG1L (UniProt Q9NWX6) 1
TRMT1 (UniProt Q9NXH9) 1
TRIM21 (UniProt P19474) 1
TTC4 (UniProt O95801) 1
TBC1D2B (UniProt Q9UPU7) 1
